Experimental data reported in PMC7439480, “Phosphorylation-Dependent Assembly of a 14-3-3 Mediated Signaling Complex during Red Blood Cell Invasion by Plasmodium falciparum Merozoites” (mBio, 2020).

Chains of the proteins cited; added tags and fusions are not shown.
UniProt Q8IKK7: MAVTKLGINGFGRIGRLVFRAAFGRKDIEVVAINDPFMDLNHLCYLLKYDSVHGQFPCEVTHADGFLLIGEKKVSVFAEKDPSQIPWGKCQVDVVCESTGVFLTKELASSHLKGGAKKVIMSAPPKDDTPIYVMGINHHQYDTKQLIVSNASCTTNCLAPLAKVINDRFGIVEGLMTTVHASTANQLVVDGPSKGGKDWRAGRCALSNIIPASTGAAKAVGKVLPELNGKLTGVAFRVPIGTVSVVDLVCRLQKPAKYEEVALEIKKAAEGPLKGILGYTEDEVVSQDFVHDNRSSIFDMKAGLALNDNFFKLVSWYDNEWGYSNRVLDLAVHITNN
UniProt Q8I719: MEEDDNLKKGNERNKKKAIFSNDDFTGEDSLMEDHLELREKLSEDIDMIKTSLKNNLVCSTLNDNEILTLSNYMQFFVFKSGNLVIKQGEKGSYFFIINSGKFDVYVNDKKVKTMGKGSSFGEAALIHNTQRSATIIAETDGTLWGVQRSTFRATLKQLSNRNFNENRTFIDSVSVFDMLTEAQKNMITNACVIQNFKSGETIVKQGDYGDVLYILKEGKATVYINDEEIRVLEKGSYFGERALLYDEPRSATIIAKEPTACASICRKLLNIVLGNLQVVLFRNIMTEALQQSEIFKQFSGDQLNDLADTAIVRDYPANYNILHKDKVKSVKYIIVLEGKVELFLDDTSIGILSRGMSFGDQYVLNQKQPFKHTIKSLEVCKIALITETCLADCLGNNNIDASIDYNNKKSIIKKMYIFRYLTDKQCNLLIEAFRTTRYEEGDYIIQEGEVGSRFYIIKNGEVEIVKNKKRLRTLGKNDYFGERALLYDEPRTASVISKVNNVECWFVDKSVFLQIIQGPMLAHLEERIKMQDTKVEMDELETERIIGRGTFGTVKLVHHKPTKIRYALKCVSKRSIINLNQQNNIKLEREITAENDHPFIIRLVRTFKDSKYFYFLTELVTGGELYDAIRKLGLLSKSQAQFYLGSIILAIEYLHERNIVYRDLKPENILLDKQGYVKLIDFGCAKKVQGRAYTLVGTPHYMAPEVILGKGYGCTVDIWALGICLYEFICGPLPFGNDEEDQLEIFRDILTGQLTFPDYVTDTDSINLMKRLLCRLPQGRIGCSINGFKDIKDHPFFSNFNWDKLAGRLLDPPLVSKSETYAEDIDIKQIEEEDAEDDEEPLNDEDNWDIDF

T1: Pf14-3-3I (P. falciparum 3D7 (endogenous in merozoites)) (UniProt C0H4V6)
T1 sequence: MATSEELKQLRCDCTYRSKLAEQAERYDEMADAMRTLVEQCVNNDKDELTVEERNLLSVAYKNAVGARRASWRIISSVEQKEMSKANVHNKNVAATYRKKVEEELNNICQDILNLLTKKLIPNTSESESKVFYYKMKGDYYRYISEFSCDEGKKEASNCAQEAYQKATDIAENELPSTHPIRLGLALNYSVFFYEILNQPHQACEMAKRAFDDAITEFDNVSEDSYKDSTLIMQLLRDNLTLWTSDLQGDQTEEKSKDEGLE

B1: phosphoethanolamine N-methyltransferase (enzyme, UniProt Q8IDQ9 1-266)
chain: MTLIENLNSDKTFLENNQYTDEGVKVYEFIFGENYISSGGLEATKKILSDIELNENSKVLDIGSGLGGGCMYINEKYGAHTHGIDICSNIVNMANERVSGNNKIIFEANDILTKEFPENNFDLIYSRDAILHLSLENKNKLFQKCYKWLKPTGTLLITDYCATEKENWDDEFKEYVKQRKYTLITVEEYADILTACNFKNVVSKDLSDYWNQLLEVEHKYLHENKEEFLKLFSEKKFISLDDGWSRKIKDSKRKMQRWGYFKATKN

Target: T1, Pf14-3-3I (P. falciparum 3D7 (endogenous in merozoites))
Assay: affinity purification with mass spectrometry; IP with anti-PfPKAr, anti-PfCDPK1 or anti-Pf14-3-3I polyclonal sera (Pierce co-IP kit) from lysates of merozoites in RPMI 1640 (low K+); eluates analysed by LC-MS/MS, MaxQuant

| Molecule | binding |
| --- | --- |
| glyceraldehyde-3-phosphate dehydrogenase (from UniProt Q8IKK7 1-337) (enzyme) | binds |
| P. falciparum protein kinase G (PfPKG) (from UniProt Q8I719 1-853) (enzyme) | no binding |
| actin-depolymerizing factor 1 | binds |
| P. falciparum protein kinase A catalytic subunit (PfPKAc) (enzyme) | binds |
| B1 | binds |

Results are given in words; binding and its absence hold for the method and conditions named. Binding seen in cells or lysates may run through a third protein. These calls come from enrichment with a bait or labelling near it, and not all partners need be listed. No binding means not detected with the bait.
